Series [1] in a line: general procedure: Fmoc solid-phase peptide synthesis; Fmoc-Sieber PS resin (0.59 mmol/g); HBTU/HOBt/DIPEA. To be noted: for final HPLC purity: 220 nm.
The nature of series [2]: general procedure: Fmoc solid-phase peptide synthesis; Fmoc-Sieber PS resin; HBTU/HOBt/DIPEA. To be noted: whole synthesis, tetrakis(hydrotrifluoroacetate).

For part of these data: Some peptides are written in HELM: one residue between dots, names in brackets for other building blocks, links after the first $.

With “PEPTIDE1{[Cy3B-pentynoyl].[GABA].[bDAsp].R.Y.[Arg(carbC4N)].L.R.Y.[am]}$PEPTIDE1,PEPTIDE1,3:R3-6:R3$$$V2.0”, in series [1] (conjugation step, TFA salt), the “final HPLC purity” value is given as 99% and the conjugation yield stood at 35%.
For the substance “PEPTIDE1{[Suc].[Arg(carbPy5)].Y.[Arg(carbC4N)].L.R.Y.[am]}$PEPTIDE1,PEPTIDE1,1:R3-4:R3$$$V2.0”, in series [1] (conjugation step, TFA salt), the “final HPLC purity” value is reported as 95% and the conjugation yield is 27%.
Turning to “PEPTIDE1{[Suc].[Arg(carbHexyne)].Y.[Arg(carbC4N)].L.R.Y.[am]}$PEPTIDE1,PEPTIDE1,1:R3-4:R3$$$V2.0”, the “final HPLC purity” value in series [1] (cyclisation step, TFA salt) is on record as 98%. Moreover, in series [1] (cyclisation step, on linear precursor 10, TFA salt), the cyclisation yield worked out at 21%.
With “PEPTIDE1{[S0223].[GABA].[bDAsp].R.Y.[Arg(carbC4N)].L.R.Y.[am]}$PEPTIDE1,PEPTIDE1,3:R3-6:R3$$$V2.0”, in series [1] (conjugation step, TFA salt), the “final HPLC purity” value worked out at 96% and the conjugation yield came to 70%.
The corresponding values for “PEPTIDE1{[Py1-butanoyl].[bDAsp].R.Y.[Arg(carbC4N)].L.R.Y.[am]}$PEPTIDE1,PEPTIDE1,2:R3-5:R3$$$V2.0” are 97% and 34%.
“N^α-Succinyl-N^ω[hex-5-ynylaminocarbonyl]-Arg-Tyr-N^ω-[(aminobutyl)aminocarbonyl] Arg-Leu-Arg-Tyr-Amide Tetrakis(hydrotrifluoroacetate)” returned an isolated mass in series [2] of 37.65 mg. The isolated yield in series [1] (whole synthesis, overall, scale of the general procedure 100 mg resin, TFA salt) stood at 37%.

The values above are taken from publication PMC11019746 (ACS Pharmacology & Translational Science, 2024).
